No constants are given. Whether binding was seen depends on the method and setting. In cells and extracts the contact can be indirect. Some entries that bind do so weakly or less than the wild type.
Experiments:
Assay in all cases: proximity ligation; Duolink PLA between two endogenous proteins in polarized bEnd3 monolayers, fixed in 4% PFA and permeabilized with 0.1% Triton X-100; two primary antibodies overnight at 4°C; PLA signal normalized by the number of nuclei; also in shRNA control (scramble) and syndapin-2 knockdown cells, and after FAM-Aβ (1–40) or Aβ monomers, oligomers or fibrils for 15 min
[1] = molecular target: receptor for advanced glycation end-products (mouse (endogenous in bEnd3)) (UniProt Q62151)
[2] = molecular target: T1, phosphatidylinositol-binding clathrin assembly (PICALM) (mouse (endogenous in bEnd3)) (UniProt Q7M6Y3)
T1 sequence: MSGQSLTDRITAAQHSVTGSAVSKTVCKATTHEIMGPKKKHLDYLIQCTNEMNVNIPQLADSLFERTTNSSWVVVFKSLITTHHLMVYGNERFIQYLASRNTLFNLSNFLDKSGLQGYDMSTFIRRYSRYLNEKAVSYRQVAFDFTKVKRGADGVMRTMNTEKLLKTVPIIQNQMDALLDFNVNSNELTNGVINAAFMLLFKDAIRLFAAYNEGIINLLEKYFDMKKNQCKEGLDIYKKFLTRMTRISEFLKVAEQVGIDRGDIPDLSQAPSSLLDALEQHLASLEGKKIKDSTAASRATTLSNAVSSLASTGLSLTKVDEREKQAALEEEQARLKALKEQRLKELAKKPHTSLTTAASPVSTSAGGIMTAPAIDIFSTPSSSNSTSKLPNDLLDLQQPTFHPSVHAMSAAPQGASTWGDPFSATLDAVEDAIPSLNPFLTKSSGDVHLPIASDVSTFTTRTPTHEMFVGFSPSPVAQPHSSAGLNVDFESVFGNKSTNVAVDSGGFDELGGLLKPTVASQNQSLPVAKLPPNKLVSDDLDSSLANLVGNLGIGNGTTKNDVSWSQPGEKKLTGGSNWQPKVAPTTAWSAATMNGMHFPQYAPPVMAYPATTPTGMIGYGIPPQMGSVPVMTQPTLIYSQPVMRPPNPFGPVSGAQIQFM

Amino acid sequences for entries named in this document (tags omitted). Residues count along the entry.
UniProt Q62151, residues 23-402: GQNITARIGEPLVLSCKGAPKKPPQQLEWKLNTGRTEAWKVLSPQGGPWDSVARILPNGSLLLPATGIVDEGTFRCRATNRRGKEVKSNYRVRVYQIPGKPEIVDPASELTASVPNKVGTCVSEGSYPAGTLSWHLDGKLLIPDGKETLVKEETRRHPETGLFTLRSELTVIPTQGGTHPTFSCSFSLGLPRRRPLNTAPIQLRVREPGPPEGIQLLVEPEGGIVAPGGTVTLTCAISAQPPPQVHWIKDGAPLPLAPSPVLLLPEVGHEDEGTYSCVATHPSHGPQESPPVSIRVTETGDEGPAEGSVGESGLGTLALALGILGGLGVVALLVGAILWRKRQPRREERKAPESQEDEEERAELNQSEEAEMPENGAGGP
UniProt Q68FD5: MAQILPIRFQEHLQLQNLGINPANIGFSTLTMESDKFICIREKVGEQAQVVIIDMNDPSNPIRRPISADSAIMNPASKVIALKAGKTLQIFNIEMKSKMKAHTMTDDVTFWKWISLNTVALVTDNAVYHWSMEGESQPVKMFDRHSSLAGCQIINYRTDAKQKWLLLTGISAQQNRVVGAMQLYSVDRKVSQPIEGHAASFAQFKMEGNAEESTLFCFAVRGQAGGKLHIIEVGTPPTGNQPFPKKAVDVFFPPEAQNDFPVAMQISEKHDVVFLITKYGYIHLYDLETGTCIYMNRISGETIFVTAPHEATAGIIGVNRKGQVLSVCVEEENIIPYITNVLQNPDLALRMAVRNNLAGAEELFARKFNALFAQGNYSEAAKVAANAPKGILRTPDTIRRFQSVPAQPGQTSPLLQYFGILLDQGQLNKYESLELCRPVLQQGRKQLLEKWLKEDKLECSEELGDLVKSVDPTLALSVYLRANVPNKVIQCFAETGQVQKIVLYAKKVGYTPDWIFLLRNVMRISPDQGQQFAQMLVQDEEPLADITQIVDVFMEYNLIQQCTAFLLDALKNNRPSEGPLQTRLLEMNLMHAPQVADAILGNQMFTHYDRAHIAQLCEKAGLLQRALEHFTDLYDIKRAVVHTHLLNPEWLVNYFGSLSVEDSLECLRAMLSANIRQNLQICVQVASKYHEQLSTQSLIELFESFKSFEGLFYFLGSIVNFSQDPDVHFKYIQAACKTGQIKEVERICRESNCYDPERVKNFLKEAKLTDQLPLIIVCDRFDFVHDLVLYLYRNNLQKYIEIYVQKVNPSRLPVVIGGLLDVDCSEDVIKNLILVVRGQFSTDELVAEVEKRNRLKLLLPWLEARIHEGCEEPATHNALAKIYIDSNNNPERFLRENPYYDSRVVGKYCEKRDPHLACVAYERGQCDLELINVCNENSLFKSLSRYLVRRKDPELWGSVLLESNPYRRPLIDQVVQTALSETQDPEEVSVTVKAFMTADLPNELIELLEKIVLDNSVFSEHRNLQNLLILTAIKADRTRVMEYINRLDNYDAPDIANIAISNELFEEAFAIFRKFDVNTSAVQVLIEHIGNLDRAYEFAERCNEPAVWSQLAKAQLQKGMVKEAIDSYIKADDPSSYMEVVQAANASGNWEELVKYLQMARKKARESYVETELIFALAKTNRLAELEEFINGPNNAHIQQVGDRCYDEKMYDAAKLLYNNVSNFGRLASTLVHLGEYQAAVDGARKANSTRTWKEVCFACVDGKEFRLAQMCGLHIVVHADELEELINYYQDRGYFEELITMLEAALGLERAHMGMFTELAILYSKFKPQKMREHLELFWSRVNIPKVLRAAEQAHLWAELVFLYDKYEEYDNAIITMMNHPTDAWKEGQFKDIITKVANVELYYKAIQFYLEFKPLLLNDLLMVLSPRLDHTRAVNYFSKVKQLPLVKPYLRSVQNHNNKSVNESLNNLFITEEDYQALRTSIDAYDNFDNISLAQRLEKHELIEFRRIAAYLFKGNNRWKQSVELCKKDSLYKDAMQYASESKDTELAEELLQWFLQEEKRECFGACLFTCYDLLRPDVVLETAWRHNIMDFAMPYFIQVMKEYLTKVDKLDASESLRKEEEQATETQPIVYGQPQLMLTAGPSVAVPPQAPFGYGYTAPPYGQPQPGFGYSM
UniProt Q9WVE8: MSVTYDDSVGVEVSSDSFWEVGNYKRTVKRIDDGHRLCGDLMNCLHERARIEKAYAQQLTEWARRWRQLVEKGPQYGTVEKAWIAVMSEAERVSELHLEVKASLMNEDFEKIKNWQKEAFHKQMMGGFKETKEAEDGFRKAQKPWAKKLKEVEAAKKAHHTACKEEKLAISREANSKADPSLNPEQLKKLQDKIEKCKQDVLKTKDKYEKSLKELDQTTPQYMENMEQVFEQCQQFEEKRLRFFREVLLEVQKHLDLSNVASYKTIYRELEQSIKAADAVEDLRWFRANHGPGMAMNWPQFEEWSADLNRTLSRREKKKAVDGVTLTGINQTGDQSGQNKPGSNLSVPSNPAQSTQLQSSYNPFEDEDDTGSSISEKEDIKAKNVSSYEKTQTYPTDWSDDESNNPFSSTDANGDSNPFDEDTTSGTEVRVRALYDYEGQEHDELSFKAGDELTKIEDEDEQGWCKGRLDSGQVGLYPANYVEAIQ

[3] = molecular target: T2, EEA-1 (mouse (endogenous in bEnd3)) (UniProt Q8BL66)
T2 sequence: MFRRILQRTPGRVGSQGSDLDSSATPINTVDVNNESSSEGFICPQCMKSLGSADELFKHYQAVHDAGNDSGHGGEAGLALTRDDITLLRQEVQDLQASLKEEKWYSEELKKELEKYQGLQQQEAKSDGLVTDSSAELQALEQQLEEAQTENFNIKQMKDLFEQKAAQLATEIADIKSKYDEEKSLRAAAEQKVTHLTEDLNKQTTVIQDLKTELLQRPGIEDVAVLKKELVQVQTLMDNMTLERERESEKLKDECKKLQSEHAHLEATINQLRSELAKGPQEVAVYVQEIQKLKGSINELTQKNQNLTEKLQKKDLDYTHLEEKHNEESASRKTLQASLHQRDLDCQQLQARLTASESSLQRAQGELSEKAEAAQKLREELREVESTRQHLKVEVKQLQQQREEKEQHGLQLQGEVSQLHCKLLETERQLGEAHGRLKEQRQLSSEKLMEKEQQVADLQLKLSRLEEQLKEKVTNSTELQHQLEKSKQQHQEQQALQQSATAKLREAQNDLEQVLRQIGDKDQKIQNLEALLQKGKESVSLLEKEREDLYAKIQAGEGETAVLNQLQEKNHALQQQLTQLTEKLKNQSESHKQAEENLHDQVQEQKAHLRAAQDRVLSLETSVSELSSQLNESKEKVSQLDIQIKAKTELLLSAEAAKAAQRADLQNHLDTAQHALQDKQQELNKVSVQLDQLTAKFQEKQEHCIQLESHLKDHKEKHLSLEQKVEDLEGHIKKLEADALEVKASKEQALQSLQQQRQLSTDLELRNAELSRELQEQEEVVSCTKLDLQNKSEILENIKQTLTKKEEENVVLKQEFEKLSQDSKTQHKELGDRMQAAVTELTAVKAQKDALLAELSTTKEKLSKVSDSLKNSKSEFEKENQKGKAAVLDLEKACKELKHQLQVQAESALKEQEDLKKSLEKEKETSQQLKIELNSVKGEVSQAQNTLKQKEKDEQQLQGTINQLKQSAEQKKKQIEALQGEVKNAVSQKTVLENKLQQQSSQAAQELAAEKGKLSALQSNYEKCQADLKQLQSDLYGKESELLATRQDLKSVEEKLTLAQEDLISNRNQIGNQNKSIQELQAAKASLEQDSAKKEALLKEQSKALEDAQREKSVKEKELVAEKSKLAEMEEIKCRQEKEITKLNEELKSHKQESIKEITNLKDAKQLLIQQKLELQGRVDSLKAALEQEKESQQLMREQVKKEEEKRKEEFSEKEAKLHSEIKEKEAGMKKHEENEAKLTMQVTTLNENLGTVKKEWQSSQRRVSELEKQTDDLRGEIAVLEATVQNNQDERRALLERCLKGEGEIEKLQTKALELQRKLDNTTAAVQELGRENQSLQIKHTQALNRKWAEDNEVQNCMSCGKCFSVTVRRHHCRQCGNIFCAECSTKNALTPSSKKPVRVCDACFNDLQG

[4] = molecular target: heavy chain of clathrin (mouse (endogenous in bEnd3)) (UniProt Q68FD5)

| binding [1] | binding [2] | binding [3] | binding [4] | Substance |
| --- | --- | --- | --- | --- |
| binds weakly | binds weakly | no binding (tested: <20 dots per cell) | – | syndapin-2 (from UniProt Q9WVE8 1-486) |
| – | – | binds | binds | low-density lipoprotein receptor-related protein 1 (from UniProt Q91ZX7 20-4545) |
